# This is one part of the list.
# Chains of the proteins cited; added tags and fusions are not shown.
# UniProt Q0JBA9, entry or part of it: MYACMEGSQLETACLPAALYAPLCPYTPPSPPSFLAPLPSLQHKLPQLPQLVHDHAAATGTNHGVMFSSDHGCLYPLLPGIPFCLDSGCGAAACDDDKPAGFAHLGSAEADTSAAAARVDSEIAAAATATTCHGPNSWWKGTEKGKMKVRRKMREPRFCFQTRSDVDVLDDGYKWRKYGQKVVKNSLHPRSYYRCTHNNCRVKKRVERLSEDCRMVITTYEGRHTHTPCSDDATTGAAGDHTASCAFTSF
# Target: OsWRKY34 (Oryza sativa, UniProt Q0JBA9 1-250)
# Assay: protein-binding microarray (RPBM); PBS, 2% BSA, 51.3 ng/ul salmon testes DNA, 50 uM zinc acetate, 200 nM TF, 25 C, 1 h; high values mean tight binding
# Settings: protein: recombinant; tags: N-terminal polyhistidine and DsRed monomer fusion (pET32a); label: CyDye5-dUTP incorporated in the synthesized complementary strand; 3' TTTTT single-stranded linker to array surface; dsDNA, one strand shown
# How it was run: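 The binding signal for each feature is its fluorescence intensity in arbitrary units. An Axon 4000B scanner was used to read a custom Agilent array that had been made double-stranded with Cy5-dUTP primer extension, blocked with 2% BSA, incubated at 25 °C for 1 h with 200 nM protein in PBS, 2% BSA, salmon testes DNA and 50 µM zinc acetate, and washed. The protein was an N-terminal polyhistidine–DsRed transcription factor fusion from E. coli BL21-CodonPlus, purified on Ni–NTA.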
row,Sequence,binding signal
1,TACTAGTACTGTGAAGTTTCTAGTTTCTTGTTTTCAGTTTCGGAGTCACCTAGTGCAG,8320 fluorescence intensity (a.u.)
2,TTGCCGTAGCCCAACCCCACGCTATATGGTCCCATGCACACGGAGTCACCTAGTGCAG,8930 fluorescence intensity (a.u.)
3,AGTAGTGGAGTACATTCCTGTTCGTGGCGCCATATATTATCGGAGTCACCTAGTGCAG,8260 fluorescence intensity (a.u.)
4,CCTTCGCCTTCTTGGGTCCGCTTCTTTCCTGTGGTGGGCGCGGAGTCACCTAGTGCAG,8750 fluorescence intensity (a.u.)
5,ATTCTCCCATCTATATCCCTCTATCTCTCTCTCAGTTTTGCGGAGTCACCTAGTGCAG,8280 fluorescence intensity (a.u.)
6,ACAAGGTGATCGGGGTAGGGGTGTAGTTACCTTCTCGTAGCGGAGTCACCTAGTGCAG,10100 fluorescence intensity (a.u.)
7,CTCACTCACTTCACTCTCTCGTTCTCTCTCTCCCATCCTGCGGAGTCACCTAGTGCAG,9910 fluorescence intensity (a.u.)
8,CCTCTCTTTTCGCTTATACTTATGCTTATCACTTAAAATTCGGAGTCACCTAGTGCAG,8360 fluorescence intensity (a.u.)
9,TAGATCAATACTGCCTAACGAACTTTTTTTTTTTTTTACGCGGAGTCACCTAGTGCAG,16400 fluorescence intensity (a.u.)
10,TTTTTAAATATGTTTGACCGTTTGTCTTATTCAAAAAATTCGGAGTCACCTAGTGCAG,8690 fluorescence intensity (a.u.)
11,CTCTTATCTTTTACCTCATTATGCTATTGTACCTGCTCTACGGAGTCACCTAGTGCAG,11400 fluorescence intensity (a.u.)
12,GTGTTTGGTTCGCTGCCGCAATTGTGTTATGCCACACTTTCGGAGTCACCTAGTGCAG,10800 fluorescence intensity (a.u.)
13,TCCGTATCCAATGATCGATGTGACTAATTTTTACACCCGACGGAGTCACCTAGTGCAG,8040 fluorescence intensity (a.u.)
14,ATCGTGCTATGGACTGTTCTGTTTTCGTGCTAGGGTGATACGGAGTCACCTAGTGCAG,9930 fluorescence intensity (a.u.)
15,AACGCCGGGGACCAACGCCTCACCCTAAGAAGCACAACTTCGGAGTCACCTAGTGCAG,8550 fluorescence intensity (a.u.)
16,CCTTTCTTTTAATCTAGCCACCAATTTAATTCTTGTGGCTCGGAGTCACCTAGTGCAG,8430 fluorescence intensity (a.u.)
17,CCAGTTTGGTAGCTGTTCATGATGAACCTCTGTTTCTATCCGGAGTCACCTAGTGCAG,8140 fluorescence intensity (a.u.)
18,CCTGCCCCATCCCGCGTCGGAAGCCTTACCAACTGCCCCACGGAGTCACCTAGTGCAG,8420 fluorescence intensity (a.u.)
19,ACATATTTTTGAAATGAAGAACTCAATTTTTCTGCCATCTCGGAGTCACCTAGTGCAG,8340 fluorescence intensity (a.u.)
20,ACGCATCTGTTTTTATTCTCTCCCATCTCTCCCGATCTCTCGGAGTCACCTAGTGCAG,8880 fluorescence intensity (a.u.)
21,CTGCCATGCCGTGTCTGTCGGTCGGTCACACCGGCACCTTCGGAGTCACCTAGTGCAG,9190 fluorescence intensity (a.u.)

row,Sequence,binding signal
1,TATCTCTCTCGTTTTCTTCTCTCTTCGAGGAGCCGAGGCGCGGAGTCACCTAGTGCAG,8200 fluorescence intensity (a.u.)
2,GCACCTATGTGGCAAATTTGACTTAGTCTTCATCTGATGTCGGAGTCACCTAGTGCAG,8950 fluorescence intensity (a.u.)
3,CATTTAATTTTCCTAGTCACCCTTATTTAAATAACTTCAACGGAGTCACCTAGTGCAG,8450 fluorescence intensity (a.u.)
4,CGTGCACCAATACTACAACGGATACTGCAACAACATACTCCGGAGTCACCTAGTGCAG,8210 fluorescence intensity (a.u.)
5,GCCTATGATACGTCAAATTTGGTCTTGGGTTGGTATATATCGGAGTCACCTAGTGCAG,13200 fluorescence intensity (a.u.)
6,TCTGTTGTAATTGTAATCTAATCATATTAAATCCTTAGTTCGGAGTCACCTAGTGCAG,8410 fluorescence intensity (a.u.)
7,TGTCCTCTATTGATCTTTCTCTGCGTCCTAGTATGAAGAACGGAGTCACCTAGTGCAG,8180 fluorescence intensity (a.u.)
8,ATACTCTGCTCCCAACTACTAGTCAACATTGACTGGTATTCGGAGTCACCTAGTGCAG,10800 fluorescence intensity (a.u.)
9,TCTGCTTCAGCTCTAGTCTCAGCCGTCTCATTTCCGTTTCCGGAGTCACCTAGTGCAG,9570 fluorescence intensity (a.u.)
10,CATGTACTTCCCTCAGGTTAGACCATCTGTTTTTGTATCCCGGAGTCACCTAGTGCAG,9250 fluorescence intensity (a.u.)
11,GTGGGGTCGGGTACTCGCGTGGGCCCACCTGGCCGGTCAACGGAGTCACCTAGTGCAG,10200 fluorescence intensity (a.u.)
12,GTTTGATGATCTCTTGTTTCGATCGGCATGACATGGCTCCCGGAGTCACCTAGTGCAG,8180 fluorescence intensity (a.u.)
13,TCCCAGCAAATGCAACGCTCGTACTCCTCGCATCAACAGCCGGAGTCACCTAGTGCAG,8210 fluorescence intensity (a.u.)
14,TGCAGTTCGTTTTCGCCTGAACATTACTACCAGCAGCCCACGGAGTCACCTAGTGCAG,8770 fluorescence intensity (a.u.)
15,CTTTTGTGTGAGTTTTTGTGGTGACCATCCATGCATGCATCGGAGTCACCTAGTGCAG,9720 fluorescence intensity (a.u.)
16,CACTGTTCCTTTCTTGACTTTCAGAGTTCACAGCATAGTTCGGAGTCACCTAGTGCAG,13200 fluorescence intensity (a.u.)
17,ACAGCACATTTTCGATTTTTTTTTCCCAATACACTATATACGGAGTCACCTAGTGCAG,11500 fluorescence intensity (a.u.)
18,AAAAGATTTAGTTTTTCCGGTTGCAATATTTGTGAAATTACGGAGTCACCTAGTGCAG,8080 fluorescence intensity (a.u.)
19,CATAATGTTTCACTTGTTGGTCAACTGTAACTAACATTGGCGGAGTCACCTAGTGCAG,8680 fluorescence intensity (a.u.)
20,CTATTTCAGTTGTGTTTGTGCGTGTCTGTACTTTATGTTTCGGAGTCACCTAGTGCAG,9990 fluorescence intensity (a.u.)
21,GCCAGCTGGACTTTGTACTCCAACAAACGGCAGCGATGACCGGAGTCACCTAGTGCAG,8220 fluorescence intensity (a.u.)

# Copied from the list:
# Under binding signal, AAAAGATTTAGTTTTTCCGGTTGCAATATTTGTGAAATTACGGAGTCACCTAGTGCAG is listed with 8080 fluorescence intensity (a.u.)
# Under binding signal, CACTGTTCCTTTCTTGACTTTCAGAGTTCACAGCATAGTTCGGAGTCACCTAGTGCAG is listed with 13200 fluorescence intensity (a.u.)

# Reference: article PMC7819943, “Rice protein-binding microarrays: a tool to detect cis-acting elements near promoter regions in rice”
